Values quoted from earlier work, collected in patent publication US5817332A, “Transdermal drug delivery system” (priority 1994, dated 1998).
The name of at least one read-out is uncertain.

Conditions: pH 7.4; cited from earlier work

For Cc1cccc([C@H](C)c2cnc[nH]2)c1C [DEX, dexmedetomidine], the logP is listed as 2.8.
